Data from paper PMC9314909.

Assays:
Experiment in all cases: EMSA
Settings in all cases: LightShift Chemiluminescent EMSA Kit (Thermo) per manufacturer; pH and temperature not stated; recombinant protein; label: 5'-biotin
MdHB1 (Malus domestica) = test system: MdHB1 (Malus domestica)
[1] = test system: MdHB1-3A T84A,T97A,T133A (Malus domestica)
MdHB2 (Malus domestica) = target: T1, MdHB2 (Malus domestica) (UniProt I1ZHV9)
T1 sequence (looked up, limits assumed): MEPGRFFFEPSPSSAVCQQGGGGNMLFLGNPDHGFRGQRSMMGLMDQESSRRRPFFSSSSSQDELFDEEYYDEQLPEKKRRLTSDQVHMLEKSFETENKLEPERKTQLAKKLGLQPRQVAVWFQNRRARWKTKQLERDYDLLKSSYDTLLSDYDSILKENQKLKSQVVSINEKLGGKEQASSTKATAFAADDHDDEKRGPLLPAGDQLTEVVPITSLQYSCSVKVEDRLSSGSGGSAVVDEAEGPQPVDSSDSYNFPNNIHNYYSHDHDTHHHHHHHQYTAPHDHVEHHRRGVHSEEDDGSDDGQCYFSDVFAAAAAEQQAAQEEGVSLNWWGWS

[2] = target: T2, MdHB2-4A T84A,S85A,T97A,T133A (Malus domestica) (UniProt I1ZHV9)
T2 sequence (looked up, limits assumed): T1 sequence (looked up, limits assumed) with T83A, S84A, T96A, T132A

Sequence: TAATAGTGTATTATTTTGCTTTACCGTCTACAATTACCAAATTTGGAAAT (double strand) [EMSA-E1 (MdACO1 promoter)]
- binding result (MdHB1 (Malus domestica)): binds
- binding result [1]: binds more weakly
- binding result (MdHB2 (Malus domestica)): binds
- binding result [2]: binds more weakly

Sequence: AAATAAGAAAAATTATGAATATTGTGTTCCAAACATCTTAAGAGGCGCA (double strand) [EMSA-E4 (MdACO1 promoter)]
- binding result (MdHB1 (Malus domestica)): binds
- binding result [1]: binds more weakly
- binding result (MdHB2 (Malus domestica)): binds
- binding result [2]: binds more weakly

Sequence: CATCTCAGTCTTTTTCTCCACCCACCACC (double strand) [EMSA-E6 (MdACO1 promoter)]
- binding result (MdHB1 (Malus domestica)): binds
- binding result [1]: binds more weakly
- binding result (MdHB2 (Malus domestica)): binds
- binding result [2]: binds more weakly

Positions count from the first letter of the chain named. The exact form of at least one protein or probe is not confirmed. For part of these data: Weaker means in comparison with the reference protein, sequence or condition of that experiment. For part of these data: At least one verdict was read from the data and is not stated in words by the source. For part of these data: Protein sequences can lack the tags named with them.
